Hit rate of the full screen: of about 210,000 compounds, about 5,900 (2.8%) were called active. Roughly 5% stayed inconclusive and do not appear here. Calls come from the whole dose curve; as a rule, active = well fitted activation curve with a large enough effect; inconclusive = small, poorly fitted or top-dose-only effect; inactive = no such curve, though single readings can be large or run the other way. The list shows a part of the results, in another mix than the full data. The source gives no active or inactive call for entries shown without one.

This is an account of results in PubChem BioAssay AID1458 (National Center for Advancing Translational Sciences (NCATS), 2008).
Potency is the fitted concentration of half-maximal effect.

The assay can be described thus: qHTS Assay for Enhancers of SMN2 Splice Variant Expression. For activity change, positive = activation: % of control where 0% means no effect. Note: nearly all actives have a fitted effect of over 55% in size. Particulars: HEK293 SMN2-luciferase splicing reporter, luminescence, 30-36 h; activity change, positive = activation: at 46.1 µM (top of the series) unless noted. The essentials: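 qHTS luciferase splicing reporter: luminescence rises when SMN2 exon 7 is included in transfected HEK293 cells. Compound exposure lasted 30-36 h at 37C, with 4.5 mM final sodium butyrate as control, followed by a ONE-Glo read.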
In general terms: qHTS replaces the single test concentration by a dilution series.
For `O=C(OCc1ccccc1)N1CCOCCOCCN(C(=O)OCc2ccccc2)CCOCCOCC1`, the activity change, positive = activation was -77.9%. `COC(=O)c1ccc2c(c1)C(=O)/C(=C/c1ccc(C)cc1)O2`: the Potency was active: 11.2 µM. Consider `C=CCn1c(C)cc(C(=O)CSc2nnc(-c3cccc(S(=O)(=O)N(CC)CC)c3)o2)c1C`, for which the activity change, positive = activation was -37.3%.

Take `Cc1ccc(-c2noc(CN3CCN(Cc4ccccc4)CC3)n2)cc1`: the “activity change, positive = activation” value was inactive: -89.9%. Regarding `COc1ccccc1NS(=O)(=O)c1ccc(C)c(NC(=O)c2ccc(S(=O)(=O)N3CCCCCC3)cc2)c1`, the activity change, positive = activation was -41.4%. Regarding `Cc1ccc(NC(=O)C2CCN(C(=O)c3cnn(-c4ccccc4)c3-n3cccc3)CC2)cc1C`, the “activity change, positive = activation” value is inactive: -46.1%. Take `C=CCn1c(SCC(=O)Nc2sccc2C(N)=O)nc2sc(CC)cc2c1=O`: the activity change, positive = activation is -71.9%. Same read-out and setting: in the case of `CN(C)S(=O)(=O)c1ccc(Cl)c(C(=O)Nc2cccc([N+](=O)[O-])c2)c1` it was inactive: -58.8%; in that of `c1ccc(-c2ccc(N3CCCC4(CCNCC4)C3)cc2)cc1`, inactive: -55.3%.

For `CC(=O)N1CCc2cc(S(=O)(=O)NCCC(=O)Nc3cccc(C)c3)ccc21`, the activity change, positive = activation came to 40.3%. `c1ccc(-c2cc(-c3nnc4n3N=C(c3ccc5ccccc5c3)CS4)[nH]n2)cc1`: the Potency is active: 11.2 µM. `Cc1ccccc1NC(=O)c1ccc2snnc2c1`: the activity change, positive = activation is 49.3%. As to `CCCCCCc1nc2ccccc2c(=O)n1NC(=O)c1c(O)c2c(n(CC(C)C)c1=O)CCCC2`, the activity change, positive = activation is -43.4%.

As to `Cc1nc(C)c(C(=O)Nc2ncc([N+](=O)[O-])s2)o1`, the Potency was active: 0.891 µM. With `O=[N+]([O-])c1ccc2nc(-c3ccc(OC(F)F)cc3)cn2c1`, the activity change, positive = activation is 84.8%.

With `COc1cccc(/C=N/Nc2ncnc(Cl)c2N)c1O`, the activity change, positive = activation is -97.8%. Regarding `O=C(NC(=S)NCc1nc2ccccc2[nH]1)c1ccccc1F`, the activity change, positive = activation worked out at 107%. In the case of `O=C1CSC(c2ccc(Cl)cc2)N1Nc1nc(N2CCOCC2)nc(N2CCOCC2)n1` (configuration not stated), the activity change, positive = activation amounted to 34.4%. On to `COc1ccc2oc(=O)c(C(=O)N3CCN(c4ccccc4C)CC3)cc2c1`, for which the Potency was active: 14.1 µM. `O=C(Nc1ccc(N2CCCCC2)c(Cl)c1)c1ncn[nH]1`: the activity change, positive = activation was 45.4%. Still for that read-out and setting: in the case of `O=C(c1ccco1)N1CCN(S(=O)(=O)c2ccc(C3CCCCC3)cc2)CC1` it was inactive: -74.4%.

`CCCCSc1nc(NCc2ccco2)c2c3c(sc2n1)COC(C)(C)C3`: the activity change, positive = activation was -43%. For `CCC(C)N1C(=O)S/C(=C/c2ccc(N3CCOCC3)cc2C)C1=O` (configuration not stated), the “activity change, positive = activation” value is inactive: -16.4%.

On to `COc1cccc(/C=N/NC(=O)c2[nH]c(C)c(C(=O)N/N=C/c3cccc(OC)c3O)c2C)c1O`, for which the activity change, positive = activation was -52.4%. For `CS(=O)(=O)NCCSc1nnnn1-c1ccccc1`, the activity change, positive = activation turned out to be 48.7%. Turning to `COc1ccccc1-c1nnc2sc(-c3cnccn3)nn12`, the activity change, positive = activation was 59.4%. Regarding `CCC(=O)Nc1cccc(C(=O)/C=C/c2ccc(F)cc2)c1`, the “activity change, positive = activation” value was inactive: -62.1%. As for `Cc1ccc(C)n1-c1ccc(C(=O)Nc2ccccc2)cc1`, the Potency is active: 12.6 µM. As to `COC(=O)Nc1ncc(CN2C(=O)c3ccccc3C2=O)s1`, the activity change, positive = activation was 36.2%. Take `COc1cc(OC)cc(C(=O)N=c2sc3ccccc3n2C)c1`: the Potency was active: 10 µM. As to `O=C(CSc1nc2ccccc2[nH]1)c1ccc(Cl)s1`, the activity change, positive = activation worked out at 43.6%. The same measure, in the same setting: the figure for `COc1ccc(C(=O)NCc2cccnc2)cc1S(=O)(=O)N1CCOCC1` is 35.5%. With `O=c1oc2ccccc2cc1-c1nc2c(s1)CCCC2`, the Potency is active: 1 µM. For the compound `Cn1cnc([N+](=O)[O-])c1Oc1ccc2ccccc2c1`, the activity change, positive = activation was -10.8%. Consider `Cc1c(NC(=O)c2cc(-c3ccc4c(c3)OCO4)on2)c(=O)n(-c2ccccc2)n1C`, for which the activity change, positive = activation stood at 44.4%.

Regarding `CC1CCCC(NC(=O)COC(=O)c2c[nH]c(=O)[nH]c2=O)C1C` (configuration not stated), the activity change, positive = activation turned out to be 38%. Consider `CCC1(COC(NC(=O)c2cccnc2)(C(F)(F)F)C(F)(F)F)COC1`, for which the activity change, positive = activation came to 25.6%. As to `O=c1n(S(=O)(=O)c2cccc3cccnc23)c2ccccc2n1S(=O)(=O)c1cccc2cccnc12`, the Potency was active: 11.2 µM.

For the compound `CC(C)c1ccc(-c2noc(C3CCCN(C(=O)c4ccc(F)cc4F)C3)n2)cc1` (configuration not stated), the activity change, positive = activation was -93.7%. Consider `CC(=O)N1CCN(c2ccc(NCc3ccc(C)cc3)cc2)CC1`, for which the “activity change, positive = activation” value was inactive: -39.9%. As for `CCNc1nc(N)nc(-c2cc(Cl)ccc2O)n1`, the Potency was active: 11.2 µM.

As to `Cc1ccc(-c2cc(C(=O)OCC(=O)Nc3cc(C)on3)c3ccccc3n2)c(C)c1`, the activity change, positive = activation came to 36.3%. Turning to `Cc1nc2c(ccc3nc(NC(=O)C(c4ccccc4)c4ccccc4)sc32)s1`, the “activity change, positive = activation” value is inactive: -63.5%. On the same count and under the same terms, the figure for `O=C(CNC(=O)OCc1ccccc1)NC1CCCCCCC1` is -36.4%. `Cc1nn(C)cc1CNC(=O)c1cnn2c(C(F)F)cc(C3CC3)nc12`: the activity change, positive = activation was 62.3%.

As to `NCCCSC1=NCCCN1`, the activity change, positive = activation is 24.1%.

Regarding `CC(C)(C)c1ccc(NC(=O)COC(=O)CCc2nc3ccccc3c(=O)[nH]2)cc1`, the activity change, positive = activation was 41.2%. `COc1cc(COc2cc(N)c(Cl)cc2C(=O)CCC2CCN(CCNS(C)(=O)=O)CC2)cc(OC)c1`: the activity change, positive = activation is -99.3%. `O=C(OCC(=O)N1CCc2ccccc21)c1cccnc1`: the activity change, positive = activation worked out at 39.6%. As for `CN(Cc1ccccc1)c1ncnc2c1cnn2-c1ccccc1`, the Potency is active: 5.62 µM. On to `Cc1ccc(NC(=O)c2c(NC(=O)C(F)(F)F)sc3c2CCCCC3)cc1`, for which the “activity change, positive = activation” value was inactive: -43.5%. `Cn1c(=O)c2c(ncn2CC(=O)N2CCN(c3cccc(Cl)c3)CC2)n(C)c1=O`: the activity change, positive = activation is 47.3%.
